Laboratory results taken from patent US10556860B2, “hTERT modulators and methods of use” (Arizona Board of Regents on Behalf of the University of …, priority 2015, dated 2020).
Some entries share one result that the patent states for a list of compounds. At least one structure is not confirmed: it was looked up by name or label, or the drawing left a doubt.

System: melanoma promoter mutant cell lines
Experiment: MTS proliferation assay, melanoma promoter mutant cell lines
Assay type: cell-based, human
Settings: 72 h treatment; read-out: EC50 (cellular proliferation, MTS)

CN(C)c1ccc(Nc2c3ccc(NC(=O)CCN4CCCC4)cc3nc3cc(NC(=O)CCN4CCCC4)ccc23)cc1 [BRACO-19, reference compound]
EC50: 18 to 40 µM
